Source: US20100311582A1, “CHEMICAL COMPOUNDS” (SYNGENTA CROP PROTECTION, INC., priority 2008, published 2010)
Some results were stated once for a whole list of compounds, not compound by compound.

Legend:
Assay type in all cases: in vivo
[1] = system: Myzus persicae (green peach aphid); experiment: B2: Myzus persicae mixed population, feeding/residual contact activity, preventive (sunflower leaf discs); settings: sunflower leaf discs sprayed with 200 ppm, 6 days incubation
[2] = system: Myzus persicae (green peach aphid); experiment: B1: Myzus persicae mixed population, sachet test (feeding activity); settings: 12.5 ppm in 30% sucrose solution, 6 days after infestation
[3] = system: Myzus persicae (green peach aphid); experiment: B3: Myzus persicae mixed population, systemic/feeding activity, curative (pea seedlings); settings: roots of infested pea seedlings in 24 ppm test solution, 6 days after introduction

Row | SMILES | control of Myzus persicae (mortality) [1] | control of Myzus persicae (mortality) [2] | control of Myzus persicae (mortality) [3]
1 | C=CCSCCNS(=O)(=O)c1cccc(OC(F)F)c1C#N [Compound P1.3] | at least 80% | at least 80% | at least 80%
2 | COc1cccc(S(=O)(=O)NC2CC(C)(C)Cc3occc32)c1C#N (stereo not drawn) [Compound P1.26] | at least 80% | at least 80% | at least 80%
3 | COc1cccc(S(=O)(=O)NCc2ccc(C)o2)c1C#N [Compound P1.32] | at least 80% | – | at least 80%
4 | N#Cc1c(OC(F)F)cccc1S(=O)(=O)NCc1ccco1 [Compound P1.19] | – | at least 80% | –
5 | COc1ccc2c(c1)CCCC2NS(=O)(=O)c1cncc(OC)c1C#N (stereo not drawn) [Compound P1.29] | – | at least 80% | at least 80%
6 | COc1cncc(S(=O)(=O)NC2CCc3sccc32)c1C#N (single isomer, unassigned) [Compound P1.41] | at least 80% | – | at least 80%
7 | COc1cncc(S(=O)(=O)NCC2OC(C)C(C)O2)c1C#N (stereo not drawn) [Compound P1.21] | – | at least 80% | –
8 | COc1cccc(S(=O)(=O)NC(C)c2cccs2)c1C#N (stereo not drawn) [Compound P1.24] | – | at least 80% | –
9 | Cc1cc(C(C)NS(=O)(=O)c2cccc(OC(F)F)c2C#N)c(C)s1 (racemic) [Compound P1.40] | – | – | at least 80%
10 | COc1ccc2c(c1)CCCC2NS(=O)(=O)c1cccc(OC(F)F)c1C#N (stereo not drawn) [Compound P1.12] | at least 80% | at least 80% | at least 80%
11 | COc1cccc(S(=O)(=O)NC(C)c2ccco2)c1C#N (stereo not drawn) [Compound P1.31] | at least 80% | at least 80% | at least 80%
12 | CN(CCNS(=O)(=O)c1cccc(OC(F)F)c1C#N)C(=O)OC(C)(C)C [Compound P1.4] | – | at least 80% | –
13 | COC1C=CC(CNS(=O)(=O)c2cccc(OC(F)F)c2C#N)(OC)O1 (stereo not drawn) [Compound P1.10] | – | at least 80% | –
14 | COc1cccc(S(=O)(=O)NC2CCc3sccc32)c1C#N (stereo not drawn) [Compound P1.34] | at least 80% | – | at least 80%
15 | Cc1cccc(S(=O)(=O)NCCCn2cncn2)c1C#N [Compound P1.23] | – | at least 80% | –
16 | CC1(C)Cc2occc2C(NS(=O)(=O)c2cccc(OC(F)F)c2C#N)C1 (stereo not drawn) [Compound P1.16] | at least 80% | at least 80% | at least 80%
17 | COc1cccc(S(=O)(=O)NCc2ccco2)c1C#N [Compound P1.27] | – | – | at least 80%
18 | N#Cc1c(F)cccc1S(=O)(=O)NC1CCc2sccc21 (racemic) [Compound P1.47] | at least 80% | – | at least 80%
19 | COc1ccc2c(c1)CCCC2NS(=O)(=O)c1cccc(OC)c1C#N (stereo not drawn) [Compound P1.25] | at least 80% | at least 80% | at least 80%
20 | N#Cc1c(OC(F)F)cccc1S(=O)(=O)NCCCN1CCCC1=O [Compound P1.17] | – | at least 80% | –

Row | SMILES | control of Myzus persicae (mortality) [1] | control of Myzus persicae (mortality) [2] | control of Myzus persicae (mortality) [3]
21 | N#Cc1c(OC(F)F)cccc1S(=O)(=O)NCCCn1cncn1 [Compound P1.15] | – | at least 80% | –
22 | COc1cncc(S(=O)(=O)NC2CC(C)(C)Cc3occc32)c1C#N (stereo not drawn) [Compound P1.7] | – | at least 80% | –
23 | COc1cccc(S(=O)(=O)NC2CCc3ccsc32)c1C#N (racemic) [Compound P1.35] | at least 80% | – | –
24 | COc1cccc(S(=O)(=O)NCc2ccsc2-n2cccc2)c1C#N [Compound P1.33] | at least 80% | – | –
25 | N#Cc1c(OC(F)F)cccc1S(=O)(=O)NCCOCc1ccccc1 [Compound P1.11] | – | at least 80% | –
26 | C=CCSCCNS(=O)(=O)c1cncc(OC)c1C#N [Compound P1.1] | – | at least 80% | –
27 | N#Cc1c(OC(F)F)cccc1S(=O)(=O)NCc1ccco1 [Compound P1.39] | at least 80% | – | at least 80%
28 | N#Cc1c(OC(F)F)cccc1S(=O)(=O)NC1CCc2sccc21 (single isomer, unassigned) [Compound P1.37] | at least 80% | – | at least 80%
29 | N#Cc1c(OC(F)F)cccc1S(=O)(=O)NCCSC1CCCC1 [Compound P1.14] | – | at least 80% | –
30 | N#Cc1c(F)cccc1S(=O)(=O)NC1CCc2ccsc21 (racemic) [Compound P1.46] | – | – | at least 80%
31 | COc1cncc(S(=O)(=O)NC(C)c2cccs2)c1C#N (stereo not drawn) [Compound P1.6] | – | at least 80% | –
32 | COc1cncc(S(=O)(=O)NCc2ccc(C)o2)c1C#N [Compound P1.43] | – | – | at least 80%
33 | Cc1cccc(S(=O)(=O)NCCSC2CCCC2)c1C#N [Compound P1.20] | – | at least 80% | –
34 | CC(C)(C)OC(=O)NCCNS(=O)(=O)c1cccc(OC(F)F)c1C#N [Compound P1.2] | – | at least 80% | –
35 | CC(NS(=O)(=O)c1cccc(F)c1C#N)c1ccco1 (racemic) [Compound P1.45] | – | – | at least 80%
36 | COc1cncc(S(=O)(=O)NCc2cccs2)c1C#N [Compound P1.44] | – | – | at least 80%
37 | CC1(C)Cc2occc2C(NS(=O)(=O)c2cccc(F)c2C#N)C1 (stereo not drawn) [Compound P1.22] | at least 80% | at least 80% | at least 80%
38 | COc1ccc2c(c1)CCCC2NS(=O)(=O)c1cccc(Cl)c1C#N (stereo not drawn) [Compound P1.8] | at least 80% | at least 80% | at least 80%
39 | N#Cc1c(OC(F)F)cccc1S(=O)(=O)NCCc1cccs1 [Compound P1.18] | at least 80% | – | at least 80%
40 | COc1cccc(S(=O)(=O)NCc2cccs2)c1C#N [Compound P1.30] | at least 80% | at least 80% | at least 80%
